# Reference: article PMC5472658
# Sequences of proteins named here, by UniProt entry; tags and fusion partners are left off. A change or cut given only in a name is not applied to a line headed by its entry.
# UniProt P49840: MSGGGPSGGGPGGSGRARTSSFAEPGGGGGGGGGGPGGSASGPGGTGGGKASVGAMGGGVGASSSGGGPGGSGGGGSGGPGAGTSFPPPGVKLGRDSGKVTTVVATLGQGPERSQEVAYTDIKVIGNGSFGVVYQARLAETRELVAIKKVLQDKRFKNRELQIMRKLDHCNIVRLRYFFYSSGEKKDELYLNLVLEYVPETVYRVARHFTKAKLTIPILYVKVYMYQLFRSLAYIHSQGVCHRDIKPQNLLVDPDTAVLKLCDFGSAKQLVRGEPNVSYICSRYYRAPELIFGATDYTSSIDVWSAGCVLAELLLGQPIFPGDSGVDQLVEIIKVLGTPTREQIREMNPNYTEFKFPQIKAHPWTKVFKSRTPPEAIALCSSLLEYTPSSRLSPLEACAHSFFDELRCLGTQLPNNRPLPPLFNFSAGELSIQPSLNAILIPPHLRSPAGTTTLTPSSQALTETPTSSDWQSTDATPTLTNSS
# UniProt P49841: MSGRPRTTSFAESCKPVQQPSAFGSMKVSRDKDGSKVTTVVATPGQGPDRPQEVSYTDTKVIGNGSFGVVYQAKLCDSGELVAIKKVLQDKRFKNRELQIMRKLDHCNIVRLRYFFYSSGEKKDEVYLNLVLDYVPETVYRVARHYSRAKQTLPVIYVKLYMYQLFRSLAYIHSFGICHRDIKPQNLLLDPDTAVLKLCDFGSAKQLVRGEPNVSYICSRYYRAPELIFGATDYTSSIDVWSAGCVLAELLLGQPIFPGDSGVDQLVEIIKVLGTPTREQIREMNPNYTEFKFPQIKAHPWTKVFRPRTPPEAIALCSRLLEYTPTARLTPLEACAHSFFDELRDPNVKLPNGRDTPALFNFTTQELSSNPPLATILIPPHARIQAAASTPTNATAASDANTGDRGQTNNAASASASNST
# UniProt Q2NL51: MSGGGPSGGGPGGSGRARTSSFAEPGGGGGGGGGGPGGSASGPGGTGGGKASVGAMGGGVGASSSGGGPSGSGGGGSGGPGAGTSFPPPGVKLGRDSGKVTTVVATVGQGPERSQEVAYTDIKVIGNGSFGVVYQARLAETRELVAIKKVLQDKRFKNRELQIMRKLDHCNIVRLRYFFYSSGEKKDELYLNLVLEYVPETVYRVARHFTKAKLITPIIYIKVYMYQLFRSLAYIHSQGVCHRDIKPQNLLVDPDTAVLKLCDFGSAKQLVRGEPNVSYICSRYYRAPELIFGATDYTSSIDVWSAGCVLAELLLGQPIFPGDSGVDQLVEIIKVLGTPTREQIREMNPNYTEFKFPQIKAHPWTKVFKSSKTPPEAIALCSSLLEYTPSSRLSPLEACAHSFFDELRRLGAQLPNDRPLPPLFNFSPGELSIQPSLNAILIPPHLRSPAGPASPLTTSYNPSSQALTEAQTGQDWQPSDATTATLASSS
# UniProt P18266: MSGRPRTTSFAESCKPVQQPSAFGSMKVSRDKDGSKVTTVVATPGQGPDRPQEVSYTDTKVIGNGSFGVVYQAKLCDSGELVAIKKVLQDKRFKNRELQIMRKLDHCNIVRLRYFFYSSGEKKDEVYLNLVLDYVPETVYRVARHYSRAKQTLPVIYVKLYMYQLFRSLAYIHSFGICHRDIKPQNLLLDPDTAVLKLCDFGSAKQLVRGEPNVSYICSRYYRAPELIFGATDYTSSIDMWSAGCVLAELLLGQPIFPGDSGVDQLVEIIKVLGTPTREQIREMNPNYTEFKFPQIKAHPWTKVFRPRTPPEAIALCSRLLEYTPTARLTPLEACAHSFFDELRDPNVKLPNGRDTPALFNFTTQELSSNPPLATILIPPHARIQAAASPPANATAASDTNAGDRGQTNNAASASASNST
# No constants are given. Whether binding was seen depends on the method and setting. In cells and extracts the contact can be indirect. Some results given as binding are weak or reduced against the parent protein; the word gives no strength. Where a sequence is shown, tags or fusion partners need not be part of it.
# Assays:
# [1] = biological target: T1, HA-tagged BIO-Arc, rat (rat) (UniProt Q63053); experiment: co-IP; avi-tag co-precipitation: HEK293 co-transfected with HA-BIO-Arc, BirA and FLAG-GSK3α or FLAG-GSK3β (wildtype or kinase dead), lysed in avi-tag pulldown buffer, Arc complexes captured on streptavidin-coated beads; blot with anti-FLAG and anti-HA
# T1 sequence (chain, biotin on the avi-tag): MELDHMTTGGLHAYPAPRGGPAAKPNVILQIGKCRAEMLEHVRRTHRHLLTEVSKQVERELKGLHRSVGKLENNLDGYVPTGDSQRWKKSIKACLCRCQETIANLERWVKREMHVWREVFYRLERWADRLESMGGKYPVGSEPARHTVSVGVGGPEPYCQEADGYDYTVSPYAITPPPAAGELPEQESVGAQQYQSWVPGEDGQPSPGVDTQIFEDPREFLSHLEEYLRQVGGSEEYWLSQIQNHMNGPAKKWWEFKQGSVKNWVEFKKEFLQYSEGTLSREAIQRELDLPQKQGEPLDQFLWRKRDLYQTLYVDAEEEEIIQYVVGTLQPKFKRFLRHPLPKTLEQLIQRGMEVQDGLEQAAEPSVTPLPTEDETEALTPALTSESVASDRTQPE
# [2] = biological target: T2, BIO-Arc, rat (N-terminally avi-tagged, biotinylated Arc) (rat) (UniProt Q63053); experiment: pull-down; avi-tag pulldown: biotinylated Arc isolated from HEK293 on streptavidin-coated beads, rotated with mouse hippocampus homogenate 4 h at 4°C in 20 mM HEPES pH 7.3, 150 mM KCl, 0.25% NP-40; blot with anti-GSK3α/β; only the target purified
# T2 sequence (chain, biotin on the avi-tag): T1 sequence (chain, biotin on the avi-tag)
# [3] = biological target: T3, BIO-Arc, human (N-terminally avi-tagged, biotinylated Arc) (human) (UniProt Q7LC44); experiment: as above
# T3 sequence (chain, biotin on the avi-tag): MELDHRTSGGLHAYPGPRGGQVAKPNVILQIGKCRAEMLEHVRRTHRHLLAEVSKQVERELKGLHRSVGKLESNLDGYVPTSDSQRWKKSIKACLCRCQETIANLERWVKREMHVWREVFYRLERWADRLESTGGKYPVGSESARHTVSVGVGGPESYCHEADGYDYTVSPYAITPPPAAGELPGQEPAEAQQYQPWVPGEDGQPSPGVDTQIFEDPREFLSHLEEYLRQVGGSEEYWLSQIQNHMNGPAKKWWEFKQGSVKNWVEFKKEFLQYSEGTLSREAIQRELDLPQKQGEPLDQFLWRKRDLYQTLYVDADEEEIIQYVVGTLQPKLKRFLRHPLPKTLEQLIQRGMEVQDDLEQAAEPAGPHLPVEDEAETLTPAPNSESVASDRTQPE
# [4] = biological target: T4, GST-fused Arc (activity-regulated cytoskeleton-associated protein), rat (rat) (UniProt Q63053); experiment: pull-down; GST-Arc on glutathione Sepharose 4B beads incubated 1 h with lysate from the rat hippocampal CA region (1 mg/ml) in 50 mM Tris-HCl pH 7.4, 150 mM NaCl, 1 mM EDTA, 0.5% NP-40; blot with anti-GSK3α/β; only the target purified
# T4 sequence: T1 sequence (chain, biotin on the avi-tag)
substance,measurement,setting,value
FLAG-GSK3α K148A (kinase dead) (from UniProt P49840 1-483) (enzyme),binding,[1],binds
FLAG-GSK3β K85A (kinase dead) (from UniProt P49841 1-420) (enzyme),binding,[1],binds
"Glycogen synthase kinase 3α (GSK3α), endogenous in mouse hippocampus (from UniProt Q2NL51 1-490) (enzyme)",binding,[2],binds
same,binding,[3],binds
"Glycogen synthase kinase 3β (GSK3β), endogenous in rat hippocampus (from UniProt P18266 1-420) (enzyme)",binding,[4],binds
